Results on 2 substances are retold here after publication doi:10.1101/2023.08.20.554038.

By UniProt entry, the sequences of proteins in these tests, tags left out.
UniProt P12367: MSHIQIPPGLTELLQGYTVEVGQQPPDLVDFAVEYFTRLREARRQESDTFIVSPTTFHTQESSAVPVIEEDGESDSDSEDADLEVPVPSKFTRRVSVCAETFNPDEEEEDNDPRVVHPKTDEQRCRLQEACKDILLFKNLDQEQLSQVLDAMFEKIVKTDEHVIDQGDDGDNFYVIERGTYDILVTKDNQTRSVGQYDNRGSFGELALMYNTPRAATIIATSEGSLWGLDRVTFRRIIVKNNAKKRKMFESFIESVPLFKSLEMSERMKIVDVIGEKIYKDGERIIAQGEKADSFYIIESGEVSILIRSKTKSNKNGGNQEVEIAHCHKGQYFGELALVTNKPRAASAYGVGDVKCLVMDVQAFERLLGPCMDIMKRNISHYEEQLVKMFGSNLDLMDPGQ
UniProt Q9Y490: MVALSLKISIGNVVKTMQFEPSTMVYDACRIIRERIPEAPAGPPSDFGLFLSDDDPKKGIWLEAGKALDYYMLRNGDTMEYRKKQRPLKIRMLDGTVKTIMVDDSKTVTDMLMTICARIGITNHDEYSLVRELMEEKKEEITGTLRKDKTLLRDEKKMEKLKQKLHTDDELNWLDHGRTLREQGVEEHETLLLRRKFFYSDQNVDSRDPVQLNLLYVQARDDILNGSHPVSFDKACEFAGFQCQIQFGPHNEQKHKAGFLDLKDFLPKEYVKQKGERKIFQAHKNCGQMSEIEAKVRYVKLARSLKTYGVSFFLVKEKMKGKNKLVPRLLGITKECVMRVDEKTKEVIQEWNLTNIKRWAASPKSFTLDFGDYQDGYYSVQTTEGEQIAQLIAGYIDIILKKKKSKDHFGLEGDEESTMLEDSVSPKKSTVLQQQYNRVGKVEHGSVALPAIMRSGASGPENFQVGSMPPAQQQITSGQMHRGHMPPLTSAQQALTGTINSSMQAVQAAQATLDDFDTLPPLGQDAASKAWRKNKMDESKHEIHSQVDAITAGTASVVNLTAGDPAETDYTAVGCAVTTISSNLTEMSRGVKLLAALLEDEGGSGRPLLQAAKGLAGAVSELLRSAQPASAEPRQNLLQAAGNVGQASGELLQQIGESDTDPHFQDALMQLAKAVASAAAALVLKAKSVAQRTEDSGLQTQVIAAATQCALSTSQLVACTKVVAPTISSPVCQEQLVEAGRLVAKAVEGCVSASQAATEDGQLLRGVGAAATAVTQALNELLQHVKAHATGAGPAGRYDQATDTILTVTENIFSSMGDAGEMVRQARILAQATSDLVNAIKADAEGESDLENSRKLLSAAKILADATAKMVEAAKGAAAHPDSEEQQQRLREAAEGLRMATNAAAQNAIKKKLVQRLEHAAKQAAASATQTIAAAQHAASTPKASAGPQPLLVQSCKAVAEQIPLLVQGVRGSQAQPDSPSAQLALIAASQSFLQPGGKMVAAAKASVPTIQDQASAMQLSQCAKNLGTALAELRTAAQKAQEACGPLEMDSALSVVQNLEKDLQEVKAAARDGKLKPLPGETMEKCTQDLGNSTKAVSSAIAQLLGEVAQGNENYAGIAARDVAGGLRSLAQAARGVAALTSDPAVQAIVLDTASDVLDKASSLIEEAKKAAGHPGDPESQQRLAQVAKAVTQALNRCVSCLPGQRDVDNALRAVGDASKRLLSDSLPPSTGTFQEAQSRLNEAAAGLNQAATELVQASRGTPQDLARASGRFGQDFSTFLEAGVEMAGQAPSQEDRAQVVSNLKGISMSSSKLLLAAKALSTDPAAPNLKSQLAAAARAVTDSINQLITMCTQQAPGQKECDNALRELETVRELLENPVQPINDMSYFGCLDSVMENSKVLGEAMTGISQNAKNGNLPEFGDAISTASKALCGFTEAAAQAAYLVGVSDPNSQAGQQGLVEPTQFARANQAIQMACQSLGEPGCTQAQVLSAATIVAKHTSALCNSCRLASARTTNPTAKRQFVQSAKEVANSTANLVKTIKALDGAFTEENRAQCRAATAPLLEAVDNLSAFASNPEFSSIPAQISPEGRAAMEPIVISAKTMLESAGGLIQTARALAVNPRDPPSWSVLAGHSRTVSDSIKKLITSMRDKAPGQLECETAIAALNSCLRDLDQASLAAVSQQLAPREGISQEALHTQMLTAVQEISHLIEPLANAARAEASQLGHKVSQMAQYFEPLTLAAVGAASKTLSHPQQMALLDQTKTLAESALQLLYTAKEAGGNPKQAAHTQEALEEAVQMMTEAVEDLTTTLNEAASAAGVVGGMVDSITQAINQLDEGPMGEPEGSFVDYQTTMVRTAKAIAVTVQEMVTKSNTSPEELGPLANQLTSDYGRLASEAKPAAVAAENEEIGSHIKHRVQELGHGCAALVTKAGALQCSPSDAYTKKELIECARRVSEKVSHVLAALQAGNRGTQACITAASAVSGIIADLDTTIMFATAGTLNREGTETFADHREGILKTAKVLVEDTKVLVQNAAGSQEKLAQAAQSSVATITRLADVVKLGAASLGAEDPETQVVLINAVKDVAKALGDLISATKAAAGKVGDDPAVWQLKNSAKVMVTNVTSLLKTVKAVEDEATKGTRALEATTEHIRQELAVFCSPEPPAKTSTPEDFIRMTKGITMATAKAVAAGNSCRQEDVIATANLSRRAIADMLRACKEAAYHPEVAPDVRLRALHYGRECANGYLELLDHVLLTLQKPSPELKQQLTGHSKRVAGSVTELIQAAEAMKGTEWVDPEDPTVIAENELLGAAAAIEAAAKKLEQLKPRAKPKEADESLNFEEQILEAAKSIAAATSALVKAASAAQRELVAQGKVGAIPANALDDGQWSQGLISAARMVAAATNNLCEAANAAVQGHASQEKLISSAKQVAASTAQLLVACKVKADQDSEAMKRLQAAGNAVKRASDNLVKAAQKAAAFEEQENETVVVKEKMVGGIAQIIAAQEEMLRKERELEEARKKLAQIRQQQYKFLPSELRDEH
UniProt Q9Y4G6: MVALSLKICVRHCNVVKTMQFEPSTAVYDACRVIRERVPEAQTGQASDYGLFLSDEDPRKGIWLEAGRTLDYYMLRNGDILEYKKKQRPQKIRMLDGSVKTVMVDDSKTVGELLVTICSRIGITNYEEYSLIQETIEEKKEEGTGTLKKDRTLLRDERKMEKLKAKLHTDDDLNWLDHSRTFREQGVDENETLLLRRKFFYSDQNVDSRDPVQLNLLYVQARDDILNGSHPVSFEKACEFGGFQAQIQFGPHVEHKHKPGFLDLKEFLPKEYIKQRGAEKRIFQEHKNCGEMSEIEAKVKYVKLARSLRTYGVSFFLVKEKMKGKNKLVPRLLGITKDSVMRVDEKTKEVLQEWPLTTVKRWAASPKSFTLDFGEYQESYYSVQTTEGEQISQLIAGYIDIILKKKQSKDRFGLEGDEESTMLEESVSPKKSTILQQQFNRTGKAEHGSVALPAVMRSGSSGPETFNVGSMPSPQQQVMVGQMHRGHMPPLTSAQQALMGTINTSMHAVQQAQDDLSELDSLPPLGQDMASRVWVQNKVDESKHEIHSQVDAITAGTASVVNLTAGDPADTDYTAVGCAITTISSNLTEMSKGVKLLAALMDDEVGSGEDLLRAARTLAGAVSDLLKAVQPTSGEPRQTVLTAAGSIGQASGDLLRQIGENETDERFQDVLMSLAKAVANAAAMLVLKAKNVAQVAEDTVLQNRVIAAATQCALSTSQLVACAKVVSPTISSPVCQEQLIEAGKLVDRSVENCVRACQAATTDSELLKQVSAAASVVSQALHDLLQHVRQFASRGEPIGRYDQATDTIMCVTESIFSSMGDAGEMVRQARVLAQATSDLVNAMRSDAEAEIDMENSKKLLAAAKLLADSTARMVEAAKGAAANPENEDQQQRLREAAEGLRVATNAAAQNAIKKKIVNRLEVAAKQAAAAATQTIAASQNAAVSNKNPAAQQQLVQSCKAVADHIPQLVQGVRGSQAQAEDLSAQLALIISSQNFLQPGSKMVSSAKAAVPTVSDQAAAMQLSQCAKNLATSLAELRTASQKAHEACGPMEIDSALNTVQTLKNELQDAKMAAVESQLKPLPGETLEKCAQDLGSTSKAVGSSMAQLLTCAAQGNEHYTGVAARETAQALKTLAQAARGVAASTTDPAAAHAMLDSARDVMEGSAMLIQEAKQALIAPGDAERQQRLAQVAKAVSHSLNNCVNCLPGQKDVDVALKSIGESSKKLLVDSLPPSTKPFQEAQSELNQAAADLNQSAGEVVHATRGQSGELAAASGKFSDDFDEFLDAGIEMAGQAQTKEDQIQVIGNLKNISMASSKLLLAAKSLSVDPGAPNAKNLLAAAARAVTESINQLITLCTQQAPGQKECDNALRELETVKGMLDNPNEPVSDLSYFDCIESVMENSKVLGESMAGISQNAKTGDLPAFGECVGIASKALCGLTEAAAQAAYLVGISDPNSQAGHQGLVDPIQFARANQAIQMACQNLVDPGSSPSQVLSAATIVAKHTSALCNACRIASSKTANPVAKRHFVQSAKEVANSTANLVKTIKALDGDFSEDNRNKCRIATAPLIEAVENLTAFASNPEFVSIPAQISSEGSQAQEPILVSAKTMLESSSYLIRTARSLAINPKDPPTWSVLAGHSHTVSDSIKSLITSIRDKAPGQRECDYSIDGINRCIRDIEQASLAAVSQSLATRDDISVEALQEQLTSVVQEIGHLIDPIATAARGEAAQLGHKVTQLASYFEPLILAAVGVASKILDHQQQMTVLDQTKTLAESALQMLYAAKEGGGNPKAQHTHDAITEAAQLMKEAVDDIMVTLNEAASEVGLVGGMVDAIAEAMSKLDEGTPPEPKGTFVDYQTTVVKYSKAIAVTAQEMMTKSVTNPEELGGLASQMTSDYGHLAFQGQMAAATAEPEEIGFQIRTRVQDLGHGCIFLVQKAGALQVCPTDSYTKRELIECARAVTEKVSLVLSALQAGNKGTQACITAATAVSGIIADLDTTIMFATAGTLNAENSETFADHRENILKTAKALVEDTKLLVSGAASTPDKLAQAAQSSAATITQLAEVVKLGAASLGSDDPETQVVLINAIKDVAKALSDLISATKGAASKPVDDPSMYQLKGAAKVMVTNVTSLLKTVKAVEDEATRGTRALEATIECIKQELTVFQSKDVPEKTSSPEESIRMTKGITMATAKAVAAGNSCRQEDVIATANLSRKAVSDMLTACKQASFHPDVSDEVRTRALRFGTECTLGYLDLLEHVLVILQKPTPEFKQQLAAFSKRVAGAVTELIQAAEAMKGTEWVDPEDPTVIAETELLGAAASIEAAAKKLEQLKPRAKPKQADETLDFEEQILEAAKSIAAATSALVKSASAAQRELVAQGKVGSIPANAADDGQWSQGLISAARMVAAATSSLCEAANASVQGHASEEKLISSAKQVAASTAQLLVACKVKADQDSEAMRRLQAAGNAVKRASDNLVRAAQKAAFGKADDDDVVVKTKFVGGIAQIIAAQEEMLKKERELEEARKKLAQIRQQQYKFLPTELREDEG

Results are given in words; binding and its absence hold for the method and conditions named. In cells and extracts the contact can be indirect. A yes stands for co-enrichment or nearness to the bait. Other partners may have been found.

In the test the target is V5 epitope-tagged murine PKA RIIα fused to miniTurbo biotin ligase (V5-RIIα-mTb), wild type (mouse) (UniProt P12367). Nature of the test: proximity labelling.

In the case of talin1 (from UniProt Q9Y490 1-2541), the binding result is given as “binds”. On to talin2 (from UniProt Q9Y4G6 1-2542), for which the binding result is given as “binds”.
